Where “and” joins values, the source holds several entries; their conditions need not be identical. Identical values can stand only once. This is one part of the list. The main result of the screen is listed elsewhere. These columns were measured beside it and carry no call. The list favours compounds with an active or inconclusive main result. The note in brackets gives the kind of curve behind each potency; many fits are weak.
Assay: qHTS Assay for Modulators of Lamin A Splicing
Settings: HeLa LMNA splicing GFP/RFP minigene ratio, 48 h
How it was run: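 S3 HeLa cells stably expressing lamin A-EGFP splicing minigene plus DsRed2, 600 cells/well, 48 h compound exposure at 37C. Laser-scanning cytometry; analysed as GFP (500-530 nm)/RFP (575-640 nm) total intensity ratio; 0.5% DMSO vehicle.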

[1] = measured here: RFP viability control channel
[2] = measured here: GFP splicing reporter channel

| SMILES | AC50 [1] | AC50 [2] |
| --- | --- | --- |
| CC(=O)Nc1ccc(NC(=O)c2csnn2)cc1 | 0.0631 µM [falling, full curve, poor fit] | – |
| COc1ccc(CNC(=O)COC(=O)c2n[nH]c3ccccc23)cc1 | – | 17.8 µM [rising, single point] |
| O=C(C1CC1)N1CCc2cc(S(=O)(=O)N(CCO)Cc3ccccc3)ccc21 | 35.5 µM [rising, single point] | – |
| CCOC(=O)N1CCC(NC(=O)c2sc(-n3cccc3)nc2C)CC1 | 35.5 µM [rising, single point] | – |
| COc1ccc(C(C[N+](=O)[O-])C2(c3ccc(OC)c(OC)c3)C(=O)c3ccccc3C2=O)cc1 (stereo not drawn) | 15.8 µM [rising, partial curve] | – |
| COc1cccc(C2=CC(c3cccc(OC)c3OC(F)F)n3nnnc3N2)c1 (stereo not drawn) | 17.8 µM [rising, single point] | – |
| COc1ccc(Nc2cc(C)nc3ccccc23)cc1 | 1.58 µM [rising, full curve] | – |
| Nn1cc(-c2ccccc2)nc1SCC(=O)N1CCN(S(=O)(=O)c2ccc3ccccc3c2)CC1 | 35.5 µM [rising, single point] | – |
| Cc1ccc(NC(=O)CSc2nnc(Cc3cccn3C)n2-c2ccc(F)cc2)cc1 | 0.00447 µM [rising, full curve, poor fit] | – |
| CCCCc1nn2c(=O)cc(COC(=O)c3cccc(NC(=O)c4cccs4)c3)nc2s1 | 22.4 µM [rising, partial curve, poor fit] | 5.62 µM [rising, partial curve, poor fit] |
| CCc1ccc(N2C(=O)CC(N3CCN(Cc4ccc5c(c4)OCO5)CC3)C2=O)cc1 (stereo not drawn) | – | 8.91 µM [rising, partial curve, poor fit] |
| Cc1cccc(/C=C/C(=O)c2cc(Br)ccc(=O)c2O)c1 | 20 µM [rising, single point] | – |
| O=[N+]([O-])c1ccc(S(=O)(=O)Nc2ccc(-c3csc(-c4ccccc4)n3)cc2)cc1 | 35.5 µM [falling, single point] | 25.1 µM [falling, single point] |
| NC(=O)c1c(NC(=O)CCCC(=O)O)sc2c1CCCCCC2 | 1.26 µM [falling, full curve, poor fit] | 1.12 µM [falling, partial curve, poor fit] |
| O=C(O)c1cn(Cc2ccccc2)c2ccccc2c1=O | 11.2 µM [rising, single point] | 11.2 µM [rising, partial curve, poor fit] |
| COc1ccc(-n2c(C)cc(C(=O)COC(=O)c3cc(NC(=O)c4cccs4)c(OC)c(OC)c3)c2C)cc1 | 17.8 µM [rising, partial curve, poor fit] | 10 µM [rising, partial curve] |
| COc1ccccc1/C=C/C=N/NC(=O)Cc1cccs1 | 28.2 µM [rising, single point] | – |
| Cc1c(Cl)cccc1-n1ncc(C(=O)NC2CCCC2)c1C1CCN(C(=O)OC(C)(C)C)CC1 | 6.31 µM [falling, partial curve, poor fit] | 3.98 µM [falling, full curve, poor fit] |

| SMILES | AC50 [1] | AC50 [2] |
| --- | --- | --- |
| CC(C)(C)NC(=O)NC(=O)CN1CCN(Cc2ccccc2)CC1 | 0.0398 µM [falling, full curve, poor fit] | – |
| Cc1cc(C)nc(NCC(O)CNc2ccccc2Cl)n1 (stereo not drawn) | 31.6 µM [rising, single point] | 14.1 µM [rising, single point] |
| O=Cc1cc2ccccc2nc1SCc1ccc(Cl)cc1 | 20 µM [rising, single point] | 35.5 µM [rising, single point] |
| O=c1oc2ccccc2c(NCc2ccccc2)c1[N+](=O)[O-] | 25.1 µM [rising, single point] | – |
| Cc1ccc(S(=O)(=O)N2CCCC2C(=O)Nc2nc3c(s2)CCCC3)cc1 (stereo not drawn) | 20 µM [rising, partial curve, poor fit] | – |
| COc1ccc(Oc2ncc3nc(-c4ccc(Cl)cc4)c(=O)n(C[C@H]4CCCO4)c3n2)cc1 | – | 11.2 µM [falling, partial curve] |
| CC1=NS(=O)(=O)c2cc(Cl)ccc2N1 | 0.112 µM [rising, full curve, poor fit] | 2.24 nM [falling, full curve, poor fit] and 1.78 µM [falling, partial curve, poor fit] |
| COc1cccc(NC(=O)CSc2nc(=O)[nH]c3c2CCCC3)c1 | 0.00316 µM [falling, full curve, poor fit] | – |
| COc1ccccc1CNCC(O)Cn1c2ccccc2c2ccccc21 (stereo not drawn) | 35.5 µM [falling, single point] | 35.5 µM [falling, single point] |
| Cc1ccc(-n2nnnc2SCC(=O)NCCC2=CCCCC2)c(C)c1 | 35.5 µM [rising, single point] | – |
| O=c1c2cccc3c2c(nn1CN1CCOCC1)-c1ccccc1-3 | – | 31.6 µM [rising, single point] |
| COC(=O)c1cc(OC)c(OC)cc1NCC(=O)Nc1cccc(C(F)(F)F)c1 | 20 µM [rising, single point] | – |
| O=C(CSc1ccc2ccccc2c1Br)Nc1cccc(S(=O)(=O)NC2=NCCCCC2)c1 | 22.4 µM [rising, partial curve] | – |
| O=S(=O)(N/N=C/c1cn(Cc2ccccc2)c2ccccc12)c1ccccc1 | 22.4 µM [falling, single point] | 15.8 µM [falling, single point] |
| CCOC(=O)N1CCN(C(=O)CSc2ccc3nnc(-c4ccccn4)n3n2)CC1 | 0.00316 µM [falling, full curve, poor fit] | 0.355 µM [falling, full curve, poor fit] |
| CC(=O)NC(c1ccco1)c1ccc2cccnc2c1O (stereo not drawn) | 11.2 µM [rising, partial curve] | – |
| Cc1ccccc1-c1nnn(CC(=O)c2ccc(S(=O)(=O)N3CCCC3)cc2)n1 | 11.2 µM [rising, partial curve] | 11.2 µM [rising, partial curve, poor fit] |
